# Measured values reported in article doi:10.1101/2023.08.23.554426.
# Protein sequences, listed by entry. Tags and fused reporters are not part of them.
# UniProt P62344, whole entry: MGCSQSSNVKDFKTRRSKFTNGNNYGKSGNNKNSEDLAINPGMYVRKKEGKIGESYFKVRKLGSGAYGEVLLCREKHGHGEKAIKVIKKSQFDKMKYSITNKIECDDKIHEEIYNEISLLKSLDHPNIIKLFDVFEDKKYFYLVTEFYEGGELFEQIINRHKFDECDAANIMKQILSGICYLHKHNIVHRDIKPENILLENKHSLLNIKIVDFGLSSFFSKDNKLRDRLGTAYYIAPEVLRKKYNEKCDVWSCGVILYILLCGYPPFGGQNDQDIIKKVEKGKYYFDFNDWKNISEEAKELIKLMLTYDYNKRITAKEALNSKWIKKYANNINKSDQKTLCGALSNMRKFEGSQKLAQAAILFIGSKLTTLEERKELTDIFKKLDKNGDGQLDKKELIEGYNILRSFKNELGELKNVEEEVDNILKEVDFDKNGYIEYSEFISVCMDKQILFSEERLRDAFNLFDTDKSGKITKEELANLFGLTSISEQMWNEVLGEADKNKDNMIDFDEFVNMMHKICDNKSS
# Target: recombinant Plasmodium falciparum calcium-dependent protein kinase 1 (PfCDPK1) (P. falciparum) (UniProt P62344)
# Test: ELISA
substance,measurement,value
"recombinant Plasmodium falciparum Raf kinase inhibitor protein (PfRKIP), wild type (from UniProt P54189)",binding,binds

# These are yes or no findings as the source states them, for the method shown. A result given as binding can be weak or reduced; the word gives no strength.
